Values of other authors as cited in US7754243B2, “Aqueous suspension of nanoscale drug particles from supercritical fluid processing” (Clemson University Research Foundation, priority 2004, dated 2010).
At least one compound was matched to its structure with a doubt left.

Conditions: cited from earlier work

## CCCCC(CC)COC(=O)CC(C(=O)OCC(CC)CCCC)S(=O)(=O)[O-].[Na+] (stereo not shown) [sodium bis(2-ethylhexyl)-sulfosuccinate]
  CMC: 2.5 mM
